Construct, isoform or probe ends are uncertain for at least one entry. At least one verdict was read from the data and is not stated in words by the source.

The chains behind the UniProt entries cited, without tags or fusion partners.
UniProt Q9UQ84, whole entry D173A: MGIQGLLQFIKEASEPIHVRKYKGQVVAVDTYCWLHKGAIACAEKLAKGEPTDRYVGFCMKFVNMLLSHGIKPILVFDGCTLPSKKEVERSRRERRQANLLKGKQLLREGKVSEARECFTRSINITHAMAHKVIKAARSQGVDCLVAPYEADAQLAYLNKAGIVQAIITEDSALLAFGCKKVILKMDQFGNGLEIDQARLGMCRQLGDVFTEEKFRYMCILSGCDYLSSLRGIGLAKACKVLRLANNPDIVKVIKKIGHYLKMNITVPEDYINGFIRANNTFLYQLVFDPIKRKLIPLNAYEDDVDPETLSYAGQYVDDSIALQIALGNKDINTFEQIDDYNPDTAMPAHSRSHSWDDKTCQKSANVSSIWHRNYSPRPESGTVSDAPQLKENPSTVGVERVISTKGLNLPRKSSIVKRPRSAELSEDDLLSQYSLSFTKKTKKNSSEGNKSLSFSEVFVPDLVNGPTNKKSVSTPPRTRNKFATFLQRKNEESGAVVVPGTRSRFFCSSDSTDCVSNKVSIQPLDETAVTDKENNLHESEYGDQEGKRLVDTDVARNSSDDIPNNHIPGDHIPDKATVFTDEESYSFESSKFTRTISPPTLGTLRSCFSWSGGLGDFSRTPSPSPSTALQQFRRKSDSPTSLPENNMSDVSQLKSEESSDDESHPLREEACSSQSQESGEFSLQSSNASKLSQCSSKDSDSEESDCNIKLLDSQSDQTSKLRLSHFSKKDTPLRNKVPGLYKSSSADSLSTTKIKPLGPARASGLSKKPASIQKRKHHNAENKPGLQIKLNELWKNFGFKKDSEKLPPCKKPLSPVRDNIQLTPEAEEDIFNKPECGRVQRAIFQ

In this series the target is EXO1 (D173A) (Homo sapiens) (UniProt Q9UQ84). Description: EMSA. The settings on record: variant D173A taken from Methods; EMSA: 25 mM Tris-acetate pH 7.5, 1 mM DTT, 3 mM EDTA, 0.1 mg/ml BSA, 1 nM DNA, 15 min on ice, 0.6% agarose at 4 C; recombinant protein; residues 1-846; protein details: C-terminal 1xFLAG (MBP cleaved); label: 32P-dCTP at 3' end of X12-3 (terminal transferase). Background: Mobility shift assays separate free from complexed probe on a gel.

Regarding “GACGTCATAGACGATTACATTGCTAGGACATGCTGTCTAGAGACTATCGC (double strand) [50 bp dsDNA (X12-3/X12-4C)]”, the binding result is “binds”.

The record behind these values is PMC12049449.
